Measurements: publication PMC10834429, “HRDE-2 drives small RNA specificity for the nuclear Argonaute protein HRDE-1” (Nature Communications, 2024)

T1: HRDE-2::2xTy1::GFP (C. elegans) (UniProt Q22058)
T1 sequence: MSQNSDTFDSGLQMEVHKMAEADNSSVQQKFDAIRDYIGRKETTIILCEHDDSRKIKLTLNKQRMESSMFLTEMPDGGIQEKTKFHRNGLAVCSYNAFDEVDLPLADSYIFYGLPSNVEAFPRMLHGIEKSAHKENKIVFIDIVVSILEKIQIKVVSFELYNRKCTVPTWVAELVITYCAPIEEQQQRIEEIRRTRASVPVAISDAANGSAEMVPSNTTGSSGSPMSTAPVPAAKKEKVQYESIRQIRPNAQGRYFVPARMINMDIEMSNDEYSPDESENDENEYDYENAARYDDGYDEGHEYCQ

T2: SIMR-1::mCherry::2xHA (C. elegans) (UniProt O01477)
T2 sequence: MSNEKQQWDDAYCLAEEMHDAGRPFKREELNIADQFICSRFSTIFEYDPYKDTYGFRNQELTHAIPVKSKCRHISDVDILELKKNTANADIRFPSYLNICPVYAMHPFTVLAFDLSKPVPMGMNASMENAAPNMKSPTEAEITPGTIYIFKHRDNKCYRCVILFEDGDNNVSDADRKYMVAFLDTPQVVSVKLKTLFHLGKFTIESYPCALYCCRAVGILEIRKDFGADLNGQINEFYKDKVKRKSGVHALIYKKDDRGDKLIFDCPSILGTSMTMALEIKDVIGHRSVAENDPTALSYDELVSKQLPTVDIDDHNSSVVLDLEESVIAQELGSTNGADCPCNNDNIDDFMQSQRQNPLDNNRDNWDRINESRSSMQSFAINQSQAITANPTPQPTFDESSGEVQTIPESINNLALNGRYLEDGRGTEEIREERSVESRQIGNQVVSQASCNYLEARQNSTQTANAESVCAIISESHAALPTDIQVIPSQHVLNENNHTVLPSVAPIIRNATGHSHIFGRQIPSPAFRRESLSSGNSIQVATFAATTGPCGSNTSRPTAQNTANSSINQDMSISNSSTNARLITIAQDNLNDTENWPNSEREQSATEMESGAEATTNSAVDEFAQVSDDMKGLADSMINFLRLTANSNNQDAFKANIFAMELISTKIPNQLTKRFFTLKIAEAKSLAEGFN

T3: GFP::3xFLAG::HRDE-1(HK-AA) (C. elegans, UniProt Q09249 1-1032, H664A | K668A)
T3 construct: Tag ends are read from the strain notation; Repair template is in Supplementary Data 3; source: C. elegans strain hrde-1(cmp309[HK-AA]) made in hrde-1(tor125[GFP::3xFLAG::hrde-1]), adult animals, in lysate; not shown: GFP, N-terminal, kept; 3xFLAG, N-terminal, kept
T3 sequence (looked up): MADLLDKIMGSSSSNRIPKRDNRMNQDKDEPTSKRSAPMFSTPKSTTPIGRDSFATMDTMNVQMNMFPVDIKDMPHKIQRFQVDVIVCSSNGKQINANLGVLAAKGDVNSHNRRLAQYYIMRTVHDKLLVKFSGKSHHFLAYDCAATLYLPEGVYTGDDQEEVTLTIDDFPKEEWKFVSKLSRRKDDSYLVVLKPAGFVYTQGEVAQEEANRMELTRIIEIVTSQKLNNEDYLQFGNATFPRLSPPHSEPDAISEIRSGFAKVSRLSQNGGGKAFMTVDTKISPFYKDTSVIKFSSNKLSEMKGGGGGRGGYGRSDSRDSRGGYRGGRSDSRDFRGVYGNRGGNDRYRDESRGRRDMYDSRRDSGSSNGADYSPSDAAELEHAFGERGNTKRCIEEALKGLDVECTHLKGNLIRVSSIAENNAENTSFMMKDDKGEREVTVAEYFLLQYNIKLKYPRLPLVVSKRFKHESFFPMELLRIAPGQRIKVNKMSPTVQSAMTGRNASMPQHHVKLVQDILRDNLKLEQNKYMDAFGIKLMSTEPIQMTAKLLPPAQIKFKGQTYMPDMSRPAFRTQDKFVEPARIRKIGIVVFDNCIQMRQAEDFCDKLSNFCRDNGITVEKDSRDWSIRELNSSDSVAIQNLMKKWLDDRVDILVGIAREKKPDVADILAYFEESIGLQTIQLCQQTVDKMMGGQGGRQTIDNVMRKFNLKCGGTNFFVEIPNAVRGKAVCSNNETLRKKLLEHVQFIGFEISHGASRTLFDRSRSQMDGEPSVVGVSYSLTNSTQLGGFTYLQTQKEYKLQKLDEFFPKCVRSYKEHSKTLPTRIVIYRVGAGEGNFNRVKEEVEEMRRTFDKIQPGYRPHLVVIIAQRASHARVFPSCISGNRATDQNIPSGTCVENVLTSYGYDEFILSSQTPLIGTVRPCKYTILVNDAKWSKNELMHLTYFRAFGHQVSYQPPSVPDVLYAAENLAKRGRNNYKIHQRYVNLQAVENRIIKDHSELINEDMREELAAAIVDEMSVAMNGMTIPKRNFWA


Tests used:
[1] = target: T1, HRDE-2::2xTy1::GFP (C. elegans); experiment: affinity purification with mass spectrometry; lysate of ~200,000 synchronized adult animals, triplicates; anti-HA beads for SIMR-1::mCherry::2xHA, anti-GFP beads for HRDE-2::2xTy1::GFP; IP buffer 50 mM Tris-Cl pH 7.5, 100 mM KCl, 2.5 mM MgCl2, 0.1% Nonidet P40 substitute; 4 °C, 1 h
[2] = target: T2, SIMR-1::mCherry::2xHA (C. elegans); experiment: as above
[3] = target: T3, GFP::3xFLAG::HRDE-1(HK-AA); experiment: affinity purification with mass spectrometry; IP of HRDE-1 from wild-type, mut-2 mutant and hrde-1(HK-AA) mutant animals; beads not stated for this IP

| Binder | binding [1] | binding [2] | binding [3] |
| --- | --- | --- | --- |
| HRDE-1 (endogenous, in the HRDE-2::2xTy1::GFP strain) (protein, UniProt Q09249 1-1032) MADLLDKIMGSSSSNRIPKRDNRMNQDKDEPTSKRSAPMFSTPKSTTPIGRDSFATMDTMNVQMNMFPVDIKDMPHKIQRFQVDVIVCSSNGKQINANLGVLAAKGDVNSHNRRLAQYYIMRTVHDKLLVKFSGKSHHFLAYDCAATLYLPEGVYTGDDQEEVTLTIDDFPKEEWKFVSKLSRRKDDSYLVVLKPAGFVYTQGEVAQEEANRMELTRIIEIVTSQKLNNEDYLQFGNATFPRLSPPHSEPDAISEIRSGFAKVSRLSQNGGGKAFMTVDTKISPFYKDTSVIKFSSNKLSEMKGGGGGRGGYGRSDSRDSRGGYRGGRSDSRDFRGVYGNRGGNDRYRDESRGRRDMYDSRRDSGSSNGADYSPSDAAELEHAFGERGNTKRCIEEALKGLDVECTHLKGNLIRVSSIAENNAENTSFMMKDDKGEREVTVAEYFLLQYNIKLKYPRLPLVVSKRFKHESFFPMELLRIAPGQRIKVNKMSPTVQSAMTGRNASMPQHHVKLVQDILRDNLKLEQNKYMDAFGIKLMSTEPIQMTAKLLPPAQIKFKGQTYMPDMSRPAFRTQDKFVEPARIRKIGIVVFDNCIQMRQAEDFCDKLSNFCRDNGITVEKDSRDWSIRELNSSDSVAIQNLMKKWLDDRVDILVGIAREKKPDVHDILKYFEESIGLQTIQLCQQTVDKMMGGQGGRQTIDNVMRKFNLKCGGTNFFVEIPNAVRGKAVCSNNETLRKKLLEHVQFIGFEISHGASRTLFDRSRSQMDGEPSVVGVSYSLTNSTQLGGFTYLQTQKEYKLQKLDEFFPKCVRSYKEHSKTLPTRIVIYRVGAGEGNFNRVKEEVEEMRRTFDKIQPGYRPHLVVIIAQRASHARVFPSCISGNRATDQNIPSGTCVENVLTSYGYDEFILSSQTPLIGTVRPCKYTILVNDAKWSKNELMHLTYFRAFGHQVSYQPPSVPDVLYAAENLAKRGRNNYKIHQRYVNLQAVENRIIKDHSELINEDMREELAAAIVDEMSVAMNGMTIPKRNFWA | binds | – | – |
| NRDE-3 (protein, UniProt Q21691 1-1057) MDLLDKVMGEMGSKPGSTAKKPATSASSTPRTNVWGTAKKPSSQQQPPKPLFTTPGSQQGSLGGRIPKREHTDRTGPDPKRKPLGGLSVPDSFNNFGTFRVQMNAWNLDISKMDERISRIMFRATLVHTDGRRFELSLGVSAFSGDVNRQQRRQAQCLLFRAWFKRNPELFKGMTDPAIAAYDAAETIYVGCSFFDVELTEHVCHLTEADFSPQEWKIVSLISRRSGSTFEIRIKTNPPIYTRGPNALTLENRSELTRIIEAITDQCLHNEKFLLYSSGTFPTKGGDIASPDEVTLIKSGFVKTTKIVDRDGVPDAIMTVDTTKSPFYKDTSLLKFFTAKMDQLTNSGGGPRGHNGGRERRDGGGNSRKYDDRRSPRDGEIDYDERTVSHYQRQFQDERISDGMLNTLKQSLKGLDCQPIHLKDSKANRSIMIDEIHTGTADSVTFEQKLPDGEMKLTSITEYYLQRYNYRLKFPHLPLVTSKRAKCYDFYPMELMSILPGQRIKQSHMTVDIQSYMTGKMSSLPDQHIKQSKLVLTEYLKLGDQPANRQMDAFRVSLKSIQPIVTNAHWLSPPDMKFANNQLYSLNPTRGVRFQTNGKFVMPARVKSVTIINYDKEFNRNVDMFAEGLAKHCSEQGMKFDSRPNSWKKVNLGSSDRRGTKVEIEEAIRNGVTIVFGIIAEKRPDMHDILKYFEEKLGQQTIQISSETADKFMRDHGGKQTIDNVIRKLNPKCGGTNFLIDVPESVGHRVVCNNSAEMRAKLYAKTQFIGFEMSHTGARTRFDIQKVMFDGDPTVVGVAYSLKHSAQLGGFSYFQESRLHKLTNLQEKMQICLNAYEQSSSYLPETVVVYRVGSGEGDYPQIVNEVNEMKLAARKKKHGYNPKFLVICTQRNSHIRVFPEHINERGKSMEQNVKSGTCVDVPGASHGYEEFILCCQTPLIGTVKPTKYTIIVNDCRWSKNEIMNVTYHLAFAHQVSYAPPAIPNVSYAAQNLAKRGHNNYKTHTKLVDMNDYSYRIKEKHEEIISSEEVDDILMRDFIETVSNDLNAMTINGRNFWA | – | binds | – |
| HRDE-2::2xTy1::GFP (natural protein, C. elegans, UniProt Q22058 1-305, looked up, HRDE-2 (HRDE-2/ENRI-3), C. elegans, tagged in the worm strain; Tag ends are read from the strain notation HRDE-2::2xTy1::GFP; also called HRDE-2/ENRI-3; source: C. elegans strain hrde-2/enri-3(tag1660[hrde-2/enri-3::2xTy1::GFP]), adult animals, in lysate; not shown: 2xTy1, C-terminal, kept; GFP, C-terminal, kept) MSQNSDTFDSGLQMEVHKMAEADNSSVQQKFDAIRDYIGRKETTIILCEHDDSRKIKLTLNKQRMESSMFLTEMPDGGIQEKTKFHRNGLAVCSYNAFDEVDLPLADSYIFYGLPSNVEAFPRMLHGIEKSAHKENKIVFIDIVVSILEKIQIKVVSFELYNRKCTVPTWVAELVITYCAPIEEQQQRIEEIRRTRASVPVAISDAANGSAEMVPSNTTGSSGSPMSTAPVPAAKKEKVQYESIRQIRPNAQGRYFVPARMINMDIEMSNDEYSPDESENDENEYDYENAARYDDGYDEGHEYCQ | – | no binding | binds |
| SIMR-1 (endogenous, in the HRDE-2::2xTy1::GFP strain) (protein, UniProt O01477 1-691) MSNEKQQWDDAYCLAEEMHDAGRPFKREELNIADQFICSRFSTIFEYDPYKDTYGFRNQELTHAIPVKSKCRHISDVDILELKKNTANADIRFPSYLNICPVYAMHPFTVLAFDLSKPVPMGMNASMENAAPNMKSPTEAEITPGTIYIFKHRDNKCYRCVILFEDGDNNVSDADRKYMVAFLDTPQVVSVKLKTLFHLGKFTIESYPCALYCCRAVGILEIRKDFGADLNGQINEFYKDKVKRKSGVHALIYKKDDRGDKLIFDCPSILGTSMTMALEIKDVIGHRSVAENDPTALSYDELVSKQLPTVDIDDHNSSVVLDLEESVIAQELGSTNGADCPCNNDNIDDFMQSQRQNPLDNNRDNWDRINESRSSMQSFAINQSQAITANPTPQPTFDESSGEVQTIPESINNLALNGRYLEDGRGTEEIREERSVESRQIGNQVVSQASCNYLEARQNSTQTANAESVCAIISESHAALPTDIQVIPSQHVLNENNHTVLPSVAPIIRNATGHSHIFGRQIPSPAFRRESLSSGNSIQVATFAATTGPCGSNTSRPTAQNTANSSINQDMSISNSSTNARLITIAQDNLNDTENWPNSEREQSATEMESGAEATTNSAVDEFAQVSDDMKGLADSMINFLRLTANSNNQDAFKANIFAMELISTKIPNQLTKRFFTLKIAEAKSLAEGFN | no binding | – | – |

These are yes or no findings as the source states them, for the method shown. Binding seen in cells or lysates may run through a third protein. A yes stands for co-enrichment or nearness to the bait. Other partners may have been found. For some assays here: A no says only that the protein was not detected with the bait. For some assays here: Tags and fused reporters may be left off the sequences shown.
